Some results were stated once for a whole list of compounds, not compound by compound.
Legend:
Assay type in all cases: biochemical
Tie-2 kinase enzyme = Tie-2 kinase enzyme (Homo sapiens, UniProt Q02763); assay: Tie-2 Homogenous Time Resolved Fluorescent (HTRF) kinase assay; conditions: read-out: IC50's for the inhibition of Tie-2 as measured by the HTRF assay
AuroraA-TPX2 KD GST = target: T1, AuroraA-TPX2 KD GST (Homo sapiens, UniProt O14965); assay: AuroraA-TPX2 Homogeneous Time Resolved Fluorescent (HTRF) kinase assay; conditions: read-out: activity in the Aurora kinase A HTRF assay
T1 construct: AuroraA-TPX2 KD GST; GST
T1 sequence (O14965 133-383 limits assumed): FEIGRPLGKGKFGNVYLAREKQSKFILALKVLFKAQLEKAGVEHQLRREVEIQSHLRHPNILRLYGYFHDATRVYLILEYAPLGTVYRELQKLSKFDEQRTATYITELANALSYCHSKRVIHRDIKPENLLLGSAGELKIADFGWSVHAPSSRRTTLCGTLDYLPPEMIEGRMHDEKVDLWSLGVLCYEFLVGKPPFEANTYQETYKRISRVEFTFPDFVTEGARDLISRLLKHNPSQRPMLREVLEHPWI
T1 sequence (Q9ULW0 1-43 partner limits assumed): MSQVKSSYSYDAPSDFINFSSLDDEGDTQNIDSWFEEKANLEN

Sequences of proteins named here, by UniProt entry; tags and fusion partners are left off. Residues count along the entry.
UniProt Q02763, 23-1124: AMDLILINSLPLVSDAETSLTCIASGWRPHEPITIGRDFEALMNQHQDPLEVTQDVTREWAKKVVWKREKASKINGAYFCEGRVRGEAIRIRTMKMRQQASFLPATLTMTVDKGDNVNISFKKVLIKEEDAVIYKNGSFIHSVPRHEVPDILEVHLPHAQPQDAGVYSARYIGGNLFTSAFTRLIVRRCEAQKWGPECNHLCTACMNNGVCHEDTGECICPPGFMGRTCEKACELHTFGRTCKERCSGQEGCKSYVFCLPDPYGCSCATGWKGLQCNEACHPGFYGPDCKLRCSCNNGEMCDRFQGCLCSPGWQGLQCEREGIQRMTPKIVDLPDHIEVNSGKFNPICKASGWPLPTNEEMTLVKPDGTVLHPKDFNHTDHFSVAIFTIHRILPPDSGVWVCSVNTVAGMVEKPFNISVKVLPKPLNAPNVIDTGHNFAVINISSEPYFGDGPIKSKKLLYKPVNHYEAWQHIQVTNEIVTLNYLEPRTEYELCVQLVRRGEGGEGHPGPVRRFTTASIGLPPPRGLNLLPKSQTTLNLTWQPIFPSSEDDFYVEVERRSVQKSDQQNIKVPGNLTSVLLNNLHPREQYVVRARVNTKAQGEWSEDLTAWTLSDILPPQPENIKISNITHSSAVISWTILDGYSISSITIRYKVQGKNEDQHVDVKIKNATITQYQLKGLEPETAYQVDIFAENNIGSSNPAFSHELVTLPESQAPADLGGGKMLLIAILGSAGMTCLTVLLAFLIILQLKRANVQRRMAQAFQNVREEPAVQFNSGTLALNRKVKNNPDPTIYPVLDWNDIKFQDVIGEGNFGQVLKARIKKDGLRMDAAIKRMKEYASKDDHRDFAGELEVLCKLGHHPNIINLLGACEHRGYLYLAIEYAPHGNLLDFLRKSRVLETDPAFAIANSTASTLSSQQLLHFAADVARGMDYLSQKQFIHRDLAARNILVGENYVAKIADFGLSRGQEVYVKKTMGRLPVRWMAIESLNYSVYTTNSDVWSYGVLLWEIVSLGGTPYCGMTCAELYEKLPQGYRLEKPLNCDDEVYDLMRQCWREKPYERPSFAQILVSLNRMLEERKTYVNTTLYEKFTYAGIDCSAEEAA
UniProt Q96GD4, whole entry: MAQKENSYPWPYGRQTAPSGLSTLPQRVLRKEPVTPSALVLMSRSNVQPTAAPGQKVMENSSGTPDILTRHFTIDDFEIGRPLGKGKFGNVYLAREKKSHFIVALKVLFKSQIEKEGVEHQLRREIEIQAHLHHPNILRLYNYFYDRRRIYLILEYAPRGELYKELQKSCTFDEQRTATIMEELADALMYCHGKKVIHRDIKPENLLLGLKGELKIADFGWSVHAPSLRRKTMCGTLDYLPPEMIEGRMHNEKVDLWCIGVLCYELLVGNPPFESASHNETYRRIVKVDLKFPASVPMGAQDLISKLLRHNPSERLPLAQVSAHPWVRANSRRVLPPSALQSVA

AuroraB FL His = target: T2, AuroraB FL His (Homo sapiens, UniProt Q96GD4); assay: AuroraB Homogeneous Time Resolved Fluorescent (HTRF) kinase assay; conditions: read-out: activity in the Aurora kinase B HTRF assay
T2 construct: AuroraB FL His; His

## Cc1cc(NC(=O)Nc2ccc(Cl)cc2)ccc1Oc1ncccc1-c1ccnc(Nc2ccc(N3CCN(C)CC3)cc2)n1 [Example 1112, N-(4-chlorophenyl)-N′-(3-methyl-4-((3-(2-((4-(4-methyl-1-piperazinyl)phenyl)amino)-4-pyrimidinyl)-2-pyridinyl)oxy)phenyl)urea]
Tie-2 kinase enzyme
  IC50: < 5 µM
AuroraA-TPX2 KD GST
  IC50: < 10 µM
AuroraB FL His
  IC50: < 10 µM

## CN1CCN(c2ccc(Nc3nccc(-c4cccnc4Oc4ccc(NC(=O)Nc5ccccc5)cc4)n3)cc2)CC1 [Example 1115, 1-(4-(3-(2-(4-(4-methylpiperazin-1-yl)phenylamino)pyrimidin-4-yl)pyridin-2-yloxy)phenyl)-3-phenylurea]
Tie-2 kinase enzyme
  IC50: < 5 µM
AuroraA-TPX2 KD GST
  IC50: < 10 µM
AuroraB FL His
  IC50: < 10 µM

## CNc1ncnc(-c2cccnc2Oc2ccc(NC(=O)Nc3cc(C(F)(F)F)ccc3N(C)C3CCN(C)CC3)c3ccccc23)n1 [Example 1116, 1-(2-(methyl(1-methylpiperidin-4-yl)amino)-5-(trifluoromethyl)phenyl)-3-(4-(3-(4-(methylamino)-1,3,5-triazin-2-yl)pyridin-2-yloxy)naphthalen-1-yl)urea]
Tie-2 kinase enzyme
  IC50: < 5 µM
AuroraA-TPX2 KD GST
  IC50: < 10 µM
AuroraB FL His
  IC50: < 10 µM

## CNc1ncnc(-c2cccnc2Oc2ccc(NC(=O)Nc3cc(Cl)ccc3N(C)CCCN(C)C)c3ccccc23)n1 [Example 1117, 1-(5-chloro-2-((3-(dimethylamino)prop-yl)(methyl)amino)phenyl)-3-(4-(3-(4-(methylamino)-1,3,5-triazin-2-yl)pyridin-2-yloxy)naphthalen-1-yl)urea]
Tie-2 kinase enzyme
  IC50: < 5 µM
AuroraA-TPX2 KD GST
  IC50: < 10 µM
AuroraB FL His
  IC50: < 10 µM

## CNc1ncnc(-c2cccnc2Oc2ccc(NC(=O)Nc3cc(C(F)(F)F)ccc3N(C)CCN(C)C)c3ccccc23)n1 [Example 1119, 1-(2-((2-(dimethylamino)ethyl)(meth-yl)amino)-5-(trifluoromethyl)phenyl)-3-(4-(3-(4-(methylamino)-1,3,5-triazin-2-yl)pyridin-2-yloxy)naphthalen-1-yl)urea]
Tie-2 kinase enzyme
  IC50: < 5 µM
AuroraA-TPX2 KD GST
  IC50: < 10 µM
AuroraB FL His
  IC50: < 10 µM

## CNc1ncnc(-c2cccnc2Oc2ccc(NC(=O)Nc3cc(C4CC4)ccc3N(C)CCCN(C)C)c3ccccc23)n1 [Example 1120, 1-(5-cyclopropyl-2-((3-(dimethylamino)prop-yl)(methyl)amino)phenyl)-3-(4-(3-(4-(methylamino)-1,3,5-triazin-2-yl)pyridin-2-yloxy)naphthalen-1-yl)urea]
Tie-2 kinase enzyme
  IC50: < 5 µM
AuroraA-TPX2 KD GST
  IC50: < 10 µM
AuroraB FL His
  IC50: < 10 µM

## Cc1ccc(NC(=O)Nc2ccc(Oc3ncccc3-c3ccnc4[nH]ccc34)cc2)cc1F [Example 1126, 1-(4-(3-(1H-pyrrolo[2,3-b]pyridin-4-yl)pyridin-2-yloxy)phenyl)-3-(3-fluoro-4-methylphenyl)urea]
Tie-2 kinase enzyme
  IC50: < 5 µM
AuroraA-TPX2 KD GST
  IC50: < 10 µM
AuroraB FL His
  IC50: < 10 µM

## O=C(Nc1ccccc1)Nc1ccc(Oc2ncccc2-c2ccnc3[nH]ccc23)cc1 [Example 1127, 1-(4-(3-(1H-pyrrolo[2,3-b]pyridin-4-yl)pyridin-2-yloxy)phenyl)-3-phenylurea]
Tie-2 kinase enzyme
  IC50: < 5 µM
AuroraA-TPX2 KD GST
  IC50: < 10 µM
AuroraB FL His
  IC50: < 10 µM

## O=C(Nc1ccc(Cl)cc1)Nc1ccc(Oc2ncccc2-c2ccnc3[nH]ccc23)cc1 [Example 1128, 1-(4-(3-(1H-pyrrolo[2,3-b]pyridin-4-yl)pyridin-2-yloxy)phenyl)-3-(4-chlorophenyl)urea]
Tie-2 kinase enzyme
  IC50: < 5 µM
AuroraA-TPX2 KD GST
  IC50: < 10 µM
AuroraB FL His
  IC50: < 10 µM

## CNc1ncnc(-c2cccnc2Oc2ccc(NC(=O)Nc3cc(C(F)(F)F)ccc3N3CCC[C@H](N(C)C)C3)c3ccccc23)n1 [Example 1131, 1-(2-((S)-3-(dimethylamino)piperidin-1-yl)-5-(trifluoromethyl)phenyl)-3-(4-(3-(4-(methylamino)-1,3,5-triazin-2-yl)pyridin-2-yloxy)naphthalen-1-yl)urea]
Tie-2 kinase enzyme
  IC50: < 5 µM
AuroraA-TPX2 KD GST
  IC50: < 10 µM
AuroraB FL His
  IC50: < 10 µM

## Cc1cc(NC(=O)Nc2ccc(Oc3ncccc3-c3ccnc(Nc4ccc(N5CCN(C)CC5)cc4)n3)c(C)c2)no1 [Example 1132, 1-(3-methyl-4-(3-(2-(4-(4-methylpiperazin-1-yl)phenylamino)pyrimidin-4-yl)pyridin-2-yloxy)phenyl)-3-(5-methylisoxazol-3-yl)urea]
Tie-2 kinase enzyme
  IC50: < 5 µM
AuroraA-TPX2 KD GST
  IC50: < 10 µM
AuroraB FL His
  IC50: < 10 µM

## Cc1cc(NC(=O)Nc2nccs2)ccc1Oc1ncccc1-c1ccnc(Nc2ccc(N3CCN(C)CC3)cc2)n1 [Example 1133, 1-(3-methyl-4-(3-(2-(4-(4-methylpiperazin-1-yl)phenylamino)pyrimidin-4-yl)pyridin-2-yloxy)phenyl)-3-(thiazol-2-yl)urea]
Tie-2 kinase enzyme
  IC50: < 5 µM
AuroraA-TPX2 KD GST
  IC50: < 10 µM
AuroraB FL His
  IC50: < 10 µM

## CCNC(=O)Nc1ccc(Oc2ncccc2-c2ccnc(Nc3ccc(N4CCN(C)CC4)cc3)n2)c(C)c1 [Example 1134, 1-ethyl-3-(3-methyl-4-(3-(2-(4-(4-methylpiperazin-1-yl)phenylamino)pyrimidin-4-yl)pyridin-2-yloxy)phenyl)urea]
Tie-2 kinase enzyme
  IC50: < 5 µM
AuroraA-TPX2 KD GST
  IC50: < 10 µM
AuroraB FL His
  IC50: < 10 µM

## CNc1ncnc(-c2cccnc2Oc2ccc(NC(=O)Nc3cccc(C(F)(F)F)c3)c3cccnc23)n1 [Example 1135, 1-(8-(3-(4-(methylamino)-1,3,5-triazin-2-yl)pyridin-2-yloxy)quinolin-5-yl)-3-(3-(trifluoromethyl)phenyl)urea]
Tie-2 kinase enzyme
  IC50: < 5 µM
AuroraA-TPX2 KD GST
  IC50: < 10 µM
AuroraB FL His
  IC50: < 10 µM

## CNc1ncnc(-c2cccnc2Oc2ccc(NC(=O)Nc3cc(Cl)ccc3OC)c3cccnc23)n1 [Example 1136, 1-(5-chloro-2-methoxyphenyl)-3-(8-(3-(4-(methylamino)-1,3,5-triazin-2-yl)pyridin-2-yloxy)quinolin-5-yl)urea]
Tie-2 kinase enzyme
  IC50: < 5 µM
AuroraA-TPX2 KD GST
  IC50: < 10 µM
AuroraB FL His
  IC50: < 10 µM

## Cc1cc(NC(=O)c2cccc(C(F)(F)F)c2)ccc1Oc1ncccc1-c1ccnc(NC2CCN(C)CC2)n1 [Example 1159, N-(3-methyl-4-((3-(2-((1-methyl-4-piperidinyl)amino)-4-pyrimidinyl)-2-pyridinyl)oxy)phenyl)-3-(trifluoro-methyl)benzamide]
Tie-2 kinase enzyme
  IC50: < 5 µM
AuroraA-TPX2 KD GST
  IC50: < 10 µM
AuroraB FL His
  IC50: < 10 µM

## Cc1cc(NC(=O)c2cccc(C(F)(F)F)c2)ccc1Oc1ncccc1-c1ccnc(NCCCN2CCOCC2)n1 [Example 1160, N-(3-methyl-4-((3-(2-((3-(4-morpho-linyl)propyl)amino)-4-pyrimidinyl)-2-pyridinyl)oxy)phenyl)-3-(trifluoromethyl) benzamide]
Tie-2 kinase enzyme
  IC50: < 5 µM
AuroraA-TPX2 KD GST
  IC50: < 10 µM
AuroraB FL His
  IC50: < 10 µM

## Cc1cc(NC(=O)c2cccc(C(F)(F)F)c2)ccc1Oc1ncccc1-c1ccnc(Nc2ccccc2)n1 [Example 1161, N-(3-methyl-4-((3-(2-(phenylamino)-4-pyrimidinyl)-2-pyridinyl)oxy)phenyl)-3-(trifluoro-methyl)benzamide]
Tie-2 kinase enzyme
  IC50: < 5 µM
AuroraA-TPX2 KD GST
  IC50: < 10 µM
AuroraB FL His
  IC50: < 10 µM

## Cc1cc(NC(=O)c2cccc(C(F)(F)F)c2)ccc1Oc1ncccc1-c1ccnc(NCCCN2CCN(C)CC2)n1 [Example 1162, N-(3-methyl-4-((3-(2-((3-(4-methyl-1-piperazinyl)propyl)amino)-4-pyrimidinyl)-2-pyridinyl)oxy)phenyl)-3-(trifluoro-methyl)benzamide]
Tie-2 kinase enzyme
  IC50: < 5 µM
AuroraA-TPX2 KD GST
  IC50: < 10 µM
AuroraB FL His
  IC50: < 10 µM

Reference: patent US8476434B2, “Protein kinase modulators and method of use” (Amgen Inc., priority 2004, dated 2013)
